In the experiment the target is Flag-NSUN2 (NOP2/Sun RNA methyltransferase 2) (UniProt Q08J23). The experiment is described as follows: co-IP; Huh7 cells co-transfected with HA-HBx and Flag-NSUN2, 48 h post-transfection; IP with anti-Flag, HBx blotted with anti-HA; IP buffer 50 mmol/L Tris-HCl pH 7.5, 1% Triton X-100, 150 mmol/L NaCl.

Chains of the proteins cited; added tags and fusions are not shown.
UniProt Q08J23: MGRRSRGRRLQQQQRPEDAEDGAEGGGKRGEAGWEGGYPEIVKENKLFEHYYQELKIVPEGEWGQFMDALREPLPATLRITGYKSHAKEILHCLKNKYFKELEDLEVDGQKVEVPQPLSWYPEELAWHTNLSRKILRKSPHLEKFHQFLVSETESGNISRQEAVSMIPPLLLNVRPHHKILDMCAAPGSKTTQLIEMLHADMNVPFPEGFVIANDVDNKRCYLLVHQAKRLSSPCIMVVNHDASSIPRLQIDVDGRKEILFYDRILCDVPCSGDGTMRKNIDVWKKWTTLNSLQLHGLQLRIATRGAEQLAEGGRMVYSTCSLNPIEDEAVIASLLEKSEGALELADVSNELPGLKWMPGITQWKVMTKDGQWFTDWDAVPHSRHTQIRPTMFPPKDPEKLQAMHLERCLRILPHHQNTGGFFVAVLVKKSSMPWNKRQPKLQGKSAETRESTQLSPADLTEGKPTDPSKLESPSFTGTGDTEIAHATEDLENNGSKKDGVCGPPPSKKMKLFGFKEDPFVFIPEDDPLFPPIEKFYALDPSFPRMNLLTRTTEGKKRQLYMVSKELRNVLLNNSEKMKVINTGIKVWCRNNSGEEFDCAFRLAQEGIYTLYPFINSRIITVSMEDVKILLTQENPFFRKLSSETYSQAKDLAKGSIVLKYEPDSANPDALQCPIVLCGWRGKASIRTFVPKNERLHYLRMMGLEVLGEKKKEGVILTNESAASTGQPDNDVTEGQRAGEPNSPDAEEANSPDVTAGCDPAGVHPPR
UniProt P03165: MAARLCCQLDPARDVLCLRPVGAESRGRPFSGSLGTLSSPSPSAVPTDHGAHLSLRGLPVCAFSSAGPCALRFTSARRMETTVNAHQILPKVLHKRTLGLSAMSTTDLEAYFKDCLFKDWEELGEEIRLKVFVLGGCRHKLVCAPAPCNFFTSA

Data on one substance can be found in publication PMC10786922.

Results are given in words; binding and its absence hold for the method and conditions named. Binding seen in cells or lysates may run through a third protein.

With “HA-HBx (hepatitis B virus X protein) (from UniProt P03165 1-154)”, the binding result is recorded as “no binding”.
